PubChem BioAssay AID540256 (National Center for Advancing Translational Sciences (NCATS), 2011)
Out of some 300,000 compounds screened, about 3,700 (1.2%) were called active. The shares of active, inactive and inconclusive entries below differ from those in the screen. Calls follow the shape of the full dose curve; tested in HEK293 cells. Where the call is inconclusive, the potency comes from a doubtful curve fit.
% is scaled to controls: 0 for no effect and ±100 for the full control effect; potency is read from the fitted curve at half-maximal effect.

Assay: qHTS for Inhibitors of binding or entry into cells for Lassa Virus; also: nearly all actives have a fitted effect of over 50% in size
Conditions: Lassa virus pseudotype entry inhibition, cell reporter; activity change, negative = inhibition: at 37.9 µM (top of the series) unless noted
In the case of `CC(=O)c1cccc(NS(=O)(=O)c2c(C(=O)N3CCOCC3)c(C)n(C)c2C)c1`, the “activity change, negative = inhibition” value was inactive: 0.199% [at 46.1 µM].
With `Cc1nc2sc(C(c3ccco3)N3CCN(c4cccc(Cl)c4)CC3)c(O)n2n1` (stereo not drawn) the Potency was inconclusive: 29.1 µM [inhibitor, single point].
For `Cc1ccccc1Nc1c(-c2ccc(O)cc2)nc2c(C)cccn12`, the “activity change, negative = inhibition” value was inactive: -11.8% [at 46.1 µM].
In the case of `O=C(CSc1ncnc2sc3c(c12)CCC3)Nc1ccccc1C(=O)O`, the “activity change, negative = inhibition” value was inactive: 8.36%.
With `Cc1cc(O)c2c(c1)C(=O)c1cccc(O)c1C2=O` the “activity change, negative = inhibition” value was inactive: -2.86%.
With `O=C(NC1CCCC1)c1cc(-c2ccccc2Cl)on1` the Potency was inconclusive: 14.1 µM [inhibitor, partial curve, poor fit].
With `Cc1cccc(Cn2cnc3c(nnn3Cc3ccccc3F)c2=O)c1` the Potency was inconclusive: 16.4 µM [inhibitor, single point].
For `Cc1[nH]c2ccc(Br)cc2c(=O)c1CN1CCCCC1`, the Potency was inconclusive: 16.4 µM [activator, partial curve, poor fit].
In the case of `C=CCNC(=O)COc1ccc(Br)cc1Cl`, the Potency was inconclusive: 6.51 µM [activator, single point].
With `COc1ccc(/C=N/n2c(SC)nnc2-c2ccccc2)cc1C` the Potency was inconclusive: 15.8 µM [inhibitor, partial curve].
For `CC(=O)Nc1ccc2nc(-c3ccco3)[nH]c2c1`, the Potency was inconclusive: 35.5 µM [activator, single point].
In the case of `C[C@H]1Cc2c(COc3ccccc3)nc3c(c2CO1)CN(C(=O)c1cccnc1)CC3`, the Potency was inconclusive: 6.68 µM [activator, single point].
In the case of `COc1ccc(-c2nnc(SCC(=O)NC3CCCCC3)o2)cc1`, the “activity change, negative = inhibition” value was inactive: -0.114% [at 46.1 µM].
With `Cc1c(Cl)cccc1-n1nnc(-c2nc(-c3ccc4c(c3)OCO4)no2)c1C` the Potency was inconclusive: 35.5 µM [activator, single point].
With `CC1CN(Cc2ccccn2)CCC1=O` (stereo not drawn) the Potency was inconclusive: 3.55 µM [inhibitor, partial curve, poor fit].
With `c1ccc2sc(NC3=NCCN3)nc2c1` the Potency was inconclusive: 25.9 µM [activator, single point].
With `COc1ccc(N2CCN(C(=O)CNC(=O)c3ccc(Br)o3)CC2)cc1` the Potency was inconclusive: 1.41 µM [inhibitor, single point].
In the case of `Cc1cccc(C(C)C)c1NC(=O)c1ccc(COc2ccc3c(C)cc(=O)oc3c2)cc1`, the Potency was inconclusive: 29.1 µM [inhibitor, single point].
For `COc1ccc(NC(=O)c2cc(-c3ccc(OC)c(OC)c3)nc3ccccc23)c(OC)c1`, the Potency was inconclusive: 7.94 µM [inhibitor, partial curve, poor fit].
For `N#CCCn1nc(-c2ccccc2)cc1Nc1ccccc1NC(=O)c1cccs1`, the Potency was inconclusive: 0.891 µM [activator, single point].
For `CN(CC(=O)Nc1ccccc1C(F)(F)F)C(=O)c1ccc(-c2ccc(Cl)cc2)o1`, the Potency was inconclusive: 11.2 µM [inhibitor, single point].
In the case of `COc1ccccc1C(=O)NC(=O)COC(=O)/C(=C/c1ccccc1)NC(C)=O`, the “activity change, negative = inhibition” value was inactive: -3.8%.
In the case of `COc1ccc(S(=O)(=O)N(C)c2ccc(C(=O)NC3CCCC3)cc2)cc1`, the Potency was inconclusive: 23.1 µM [inhibitor, single point].
With `O=C(CSc1nnc(-c2cccs2)n1-c1cccc(Cl)c1)c1cccc2c1OCCO2` the Potency was inconclusive: 11.6 µM [inhibitor, partial curve, poor fit].
With `O=c1oc2ccccc2c(Nc2cc3ccccc3cc2O)c1[N+](=O)[O-]` the Potency was inconclusive: 14.1 µM [inhibitor, single point].
In the case of `C=CCOc1ccc(C(=O)CC)cc1OC`, the Potency was inconclusive: 20.6 µM [activator, partial curve, poor fit].
For `CSc1nc(N)nc(-c2cccs2)c1C#N`, the “activity change, negative = inhibition” value was inactive: 2.15%.
With `Cn1c(=O)[nH]c2nnc(-c3ccc(Cl)c(Cl)c3)nc2c1=O` the Potency was active: 10 µM.
With `COc1cccc(NC(=S)N2CCC(c3ccc(C)cc3)C2)c1` (stereo not drawn) the Potency was inconclusive: 35.5 µM [inhibitor, single point].
In the case of `COc1ccccc1N(CC(=O)NC1CCCC1)S(=O)(=O)c1cccc(C(F)(F)F)c1`, the Potency was inconclusive: 0.251 µM [inhibitor, full curve, poor fit].
For `Cc1ccc(-c2csc3nnc(SCC(=O)NCc4ccc5c(c4)OCO5)n23)cc1`, the “activity change, negative = inhibition” value was inactive: 11%.
In the case of `CCN(CC)S(=O)(=O)c1csc(C(=O)NC2CCCCC2)c1`, the Potency was inconclusive: 6.51 µM [inhibitor, partial curve].
In the case of `CCOc1ccc(Oc2ccccc2NC(=O)C2=COCCO2)cc1`, the Potency was inconclusive: 14.1 µM [inhibitor, partial curve, poor fit].
With `Cc1ccc(S(=O)(=O)CCC(=O)NCCN2C(=O)S/C(=C\c3ccccc3)C2=O)cc1` the “activity change, negative = inhibition” value was inactive: -3.11%.
For `Cc1c(NS(=O)(=O)c2cccc([N+](=O)[O-])c2)c(=O)n(-c2ccccc2)n1C`, the activity change, negative = inhibition was inconclusive: 0.545% [activator].
In the case of `CCOc1ccc(NC(=O)c2cc(Cl)nc3ccccc23)cc1`, the Potency was inconclusive: 10 µM [inhibitor, partial curve, poor fit].
In the case of `O=C(COc1ccc(S(=O)(=O)N2CCCC2)cc1)NCc1cccnc1`, the “activity change, negative = inhibition” value was inactive: -0.0977%.
For `CC(/C=N/NC(=O)CSc1nc2ccccc2n1C)=C\c1ccco1`, the Potency was inconclusive: 29.1 µM [inhibitor, single point].
In the case of `CCN(c1cccc(C)c1)S(=O)(=O)c1ccc2c(c1)CCCN2C(C)=O`, the Potency was inconclusive: 2.51 µM [inhibitor, full curve, poor fit].
For `c1ccc2oc(SCc3cn4ccsc4n3)nc2c1`, the Potency was inconclusive: 1.26 µM [activator, single point].
For `COc1cccc(NC(=O)c2ccc3c(=O)n4nc(Nc5ccccc5OC)sc4nc3c2)c1`, the Potency was inconclusive: 1.26 µM [inhibitor, full curve, poor fit].
With `O=C(c1ccc(C#Cc2ccccc2)o1)N1CCN(c2ccccn2)CC1` the “activity change, negative = inhibition” value was inactive: -13.6%.
For `CCOC1=C/C(=C/c2c(N)n3nc(-c4ccccc4)sc3nc2=O)C=CC1=O`, the Potency was inconclusive: 7.08 µM [activator, partial curve, poor fit].
